Assay results: the supplement of paper PMC11006884
What follows is the remainder of the data, with few or none of the targets with a hit. The data scatter; read single values as rough. Only a part is listed here, and it is no random draw.

By UniProt entry, the sequences of proteins in these tests, tags left out. Where a name states a change or a piece, a line headed by the entry shows the natural chain unless it says otherwise.
UniProt Q6PL18: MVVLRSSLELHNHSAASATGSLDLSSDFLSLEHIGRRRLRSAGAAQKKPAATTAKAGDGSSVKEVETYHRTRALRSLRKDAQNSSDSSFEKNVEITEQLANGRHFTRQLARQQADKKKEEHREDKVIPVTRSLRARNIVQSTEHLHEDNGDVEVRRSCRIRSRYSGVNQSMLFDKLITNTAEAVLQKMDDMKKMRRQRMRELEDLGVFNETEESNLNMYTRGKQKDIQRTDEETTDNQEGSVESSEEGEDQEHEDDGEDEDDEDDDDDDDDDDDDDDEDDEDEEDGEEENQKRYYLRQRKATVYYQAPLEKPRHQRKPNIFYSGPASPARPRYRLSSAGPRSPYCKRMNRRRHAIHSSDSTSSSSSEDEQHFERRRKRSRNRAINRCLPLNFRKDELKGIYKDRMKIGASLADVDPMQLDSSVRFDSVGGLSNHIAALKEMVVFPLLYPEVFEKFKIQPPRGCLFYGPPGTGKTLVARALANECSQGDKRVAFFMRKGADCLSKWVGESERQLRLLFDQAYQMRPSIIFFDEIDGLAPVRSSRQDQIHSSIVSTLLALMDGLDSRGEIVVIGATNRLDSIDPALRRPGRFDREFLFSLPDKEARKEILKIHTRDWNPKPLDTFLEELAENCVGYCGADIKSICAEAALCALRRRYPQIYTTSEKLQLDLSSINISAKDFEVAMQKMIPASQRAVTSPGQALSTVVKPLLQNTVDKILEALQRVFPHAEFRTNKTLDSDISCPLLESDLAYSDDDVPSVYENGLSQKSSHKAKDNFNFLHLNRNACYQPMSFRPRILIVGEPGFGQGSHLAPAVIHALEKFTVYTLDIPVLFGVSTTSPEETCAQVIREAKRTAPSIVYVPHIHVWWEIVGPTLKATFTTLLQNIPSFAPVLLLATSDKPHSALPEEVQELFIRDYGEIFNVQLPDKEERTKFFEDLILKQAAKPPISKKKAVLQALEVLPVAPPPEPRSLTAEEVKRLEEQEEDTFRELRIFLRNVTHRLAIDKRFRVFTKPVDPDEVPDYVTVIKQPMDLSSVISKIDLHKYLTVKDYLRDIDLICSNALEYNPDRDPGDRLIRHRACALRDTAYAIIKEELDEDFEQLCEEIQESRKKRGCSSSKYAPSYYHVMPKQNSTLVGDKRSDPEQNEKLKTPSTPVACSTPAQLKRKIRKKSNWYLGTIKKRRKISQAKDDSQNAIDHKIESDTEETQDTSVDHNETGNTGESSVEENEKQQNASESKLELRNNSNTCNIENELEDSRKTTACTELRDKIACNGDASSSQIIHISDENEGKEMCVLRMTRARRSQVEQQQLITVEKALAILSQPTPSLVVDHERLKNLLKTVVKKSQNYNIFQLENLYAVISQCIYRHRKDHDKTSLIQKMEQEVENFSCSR
UniProt Q5TAX3: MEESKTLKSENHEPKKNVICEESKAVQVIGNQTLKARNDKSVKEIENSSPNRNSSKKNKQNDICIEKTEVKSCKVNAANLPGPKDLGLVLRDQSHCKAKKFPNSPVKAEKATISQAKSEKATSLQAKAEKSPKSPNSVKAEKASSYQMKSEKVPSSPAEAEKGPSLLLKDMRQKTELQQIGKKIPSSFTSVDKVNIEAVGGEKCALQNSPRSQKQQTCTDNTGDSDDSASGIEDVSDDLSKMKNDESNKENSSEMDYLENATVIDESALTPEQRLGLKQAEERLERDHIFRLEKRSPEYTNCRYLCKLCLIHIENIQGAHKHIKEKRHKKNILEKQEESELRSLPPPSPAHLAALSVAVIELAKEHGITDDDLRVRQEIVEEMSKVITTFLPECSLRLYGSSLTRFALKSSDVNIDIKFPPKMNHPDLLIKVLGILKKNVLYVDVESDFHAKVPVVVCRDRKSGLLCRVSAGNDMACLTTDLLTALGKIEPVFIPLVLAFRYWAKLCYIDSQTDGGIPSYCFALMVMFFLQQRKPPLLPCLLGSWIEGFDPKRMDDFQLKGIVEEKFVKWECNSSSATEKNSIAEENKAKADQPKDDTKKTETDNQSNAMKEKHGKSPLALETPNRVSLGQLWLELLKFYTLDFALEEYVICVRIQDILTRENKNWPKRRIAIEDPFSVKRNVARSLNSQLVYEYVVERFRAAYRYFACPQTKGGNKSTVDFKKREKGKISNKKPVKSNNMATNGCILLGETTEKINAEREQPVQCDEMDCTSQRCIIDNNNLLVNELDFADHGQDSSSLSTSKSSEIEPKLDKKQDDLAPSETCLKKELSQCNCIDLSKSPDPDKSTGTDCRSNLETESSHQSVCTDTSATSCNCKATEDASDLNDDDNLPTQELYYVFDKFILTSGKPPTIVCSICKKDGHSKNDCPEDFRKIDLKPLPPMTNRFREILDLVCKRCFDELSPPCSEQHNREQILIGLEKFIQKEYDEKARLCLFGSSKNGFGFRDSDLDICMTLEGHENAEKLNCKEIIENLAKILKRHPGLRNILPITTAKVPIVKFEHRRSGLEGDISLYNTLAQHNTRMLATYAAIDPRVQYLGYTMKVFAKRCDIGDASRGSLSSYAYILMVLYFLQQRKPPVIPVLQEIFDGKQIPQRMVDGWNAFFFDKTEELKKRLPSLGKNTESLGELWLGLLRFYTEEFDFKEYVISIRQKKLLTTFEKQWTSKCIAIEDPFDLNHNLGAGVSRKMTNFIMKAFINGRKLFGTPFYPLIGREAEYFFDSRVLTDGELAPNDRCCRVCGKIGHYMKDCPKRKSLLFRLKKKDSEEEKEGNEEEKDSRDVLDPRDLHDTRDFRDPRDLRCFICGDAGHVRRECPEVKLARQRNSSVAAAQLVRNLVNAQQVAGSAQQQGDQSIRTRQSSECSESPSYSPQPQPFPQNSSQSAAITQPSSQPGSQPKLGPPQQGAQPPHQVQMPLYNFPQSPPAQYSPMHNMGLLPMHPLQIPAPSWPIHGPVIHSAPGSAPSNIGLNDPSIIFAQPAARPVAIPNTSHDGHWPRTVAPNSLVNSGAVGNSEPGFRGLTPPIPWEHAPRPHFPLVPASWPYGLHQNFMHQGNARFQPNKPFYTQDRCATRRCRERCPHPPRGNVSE
UniProt Q6P4I2: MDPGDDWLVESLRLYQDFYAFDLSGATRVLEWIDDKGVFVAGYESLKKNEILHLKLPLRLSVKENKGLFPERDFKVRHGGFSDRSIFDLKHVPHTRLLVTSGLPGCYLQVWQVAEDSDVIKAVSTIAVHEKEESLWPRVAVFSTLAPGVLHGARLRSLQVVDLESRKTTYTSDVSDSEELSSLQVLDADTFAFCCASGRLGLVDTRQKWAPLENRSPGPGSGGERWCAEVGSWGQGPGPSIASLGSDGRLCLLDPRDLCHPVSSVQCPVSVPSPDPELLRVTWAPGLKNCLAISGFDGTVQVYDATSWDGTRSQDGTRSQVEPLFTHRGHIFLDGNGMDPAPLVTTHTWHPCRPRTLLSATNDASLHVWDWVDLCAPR
UniProt Q5U5X0: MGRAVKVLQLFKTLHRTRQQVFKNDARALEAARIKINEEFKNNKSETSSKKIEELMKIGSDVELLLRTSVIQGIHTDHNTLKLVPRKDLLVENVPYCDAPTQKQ
UniProt Q5JTD0: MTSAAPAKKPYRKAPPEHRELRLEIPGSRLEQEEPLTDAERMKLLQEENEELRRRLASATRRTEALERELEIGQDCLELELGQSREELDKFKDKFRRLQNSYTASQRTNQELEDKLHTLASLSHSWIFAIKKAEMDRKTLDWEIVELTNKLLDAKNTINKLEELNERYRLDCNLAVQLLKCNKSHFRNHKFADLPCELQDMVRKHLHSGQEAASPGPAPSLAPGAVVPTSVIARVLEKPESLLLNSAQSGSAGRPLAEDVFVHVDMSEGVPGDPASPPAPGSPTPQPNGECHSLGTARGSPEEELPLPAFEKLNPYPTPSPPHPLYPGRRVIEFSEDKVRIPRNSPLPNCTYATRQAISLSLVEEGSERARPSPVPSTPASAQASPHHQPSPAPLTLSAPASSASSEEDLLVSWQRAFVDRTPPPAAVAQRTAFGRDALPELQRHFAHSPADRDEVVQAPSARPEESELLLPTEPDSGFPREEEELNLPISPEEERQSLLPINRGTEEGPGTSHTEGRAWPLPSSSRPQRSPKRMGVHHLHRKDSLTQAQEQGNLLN
UniProt Q6ZU80: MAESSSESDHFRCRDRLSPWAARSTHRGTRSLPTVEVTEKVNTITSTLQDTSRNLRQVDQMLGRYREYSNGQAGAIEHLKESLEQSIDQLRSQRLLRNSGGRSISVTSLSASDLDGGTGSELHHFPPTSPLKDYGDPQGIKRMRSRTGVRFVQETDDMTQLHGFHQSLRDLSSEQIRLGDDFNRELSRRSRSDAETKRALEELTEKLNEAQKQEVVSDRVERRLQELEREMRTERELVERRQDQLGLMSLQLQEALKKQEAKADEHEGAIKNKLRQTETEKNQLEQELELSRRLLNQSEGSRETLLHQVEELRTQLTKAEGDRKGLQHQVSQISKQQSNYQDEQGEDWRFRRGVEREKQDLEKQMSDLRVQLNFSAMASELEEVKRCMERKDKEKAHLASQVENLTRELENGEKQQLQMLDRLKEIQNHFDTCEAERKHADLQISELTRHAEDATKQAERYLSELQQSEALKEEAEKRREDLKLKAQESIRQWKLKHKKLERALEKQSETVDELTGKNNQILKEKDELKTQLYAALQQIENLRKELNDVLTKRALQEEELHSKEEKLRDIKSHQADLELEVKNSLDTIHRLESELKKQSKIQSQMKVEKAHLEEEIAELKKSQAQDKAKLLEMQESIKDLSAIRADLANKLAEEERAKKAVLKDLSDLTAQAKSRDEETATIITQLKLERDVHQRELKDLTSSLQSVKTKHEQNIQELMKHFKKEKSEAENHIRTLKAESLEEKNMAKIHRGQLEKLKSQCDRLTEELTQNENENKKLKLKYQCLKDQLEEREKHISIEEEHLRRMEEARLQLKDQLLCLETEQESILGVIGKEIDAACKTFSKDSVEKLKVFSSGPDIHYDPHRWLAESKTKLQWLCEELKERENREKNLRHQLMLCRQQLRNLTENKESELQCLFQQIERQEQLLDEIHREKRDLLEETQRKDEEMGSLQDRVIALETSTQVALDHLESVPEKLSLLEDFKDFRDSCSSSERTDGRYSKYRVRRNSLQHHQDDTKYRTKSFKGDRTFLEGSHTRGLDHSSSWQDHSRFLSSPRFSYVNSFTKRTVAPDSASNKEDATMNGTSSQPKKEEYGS
UniProt Q66K14, whole entry, looked up: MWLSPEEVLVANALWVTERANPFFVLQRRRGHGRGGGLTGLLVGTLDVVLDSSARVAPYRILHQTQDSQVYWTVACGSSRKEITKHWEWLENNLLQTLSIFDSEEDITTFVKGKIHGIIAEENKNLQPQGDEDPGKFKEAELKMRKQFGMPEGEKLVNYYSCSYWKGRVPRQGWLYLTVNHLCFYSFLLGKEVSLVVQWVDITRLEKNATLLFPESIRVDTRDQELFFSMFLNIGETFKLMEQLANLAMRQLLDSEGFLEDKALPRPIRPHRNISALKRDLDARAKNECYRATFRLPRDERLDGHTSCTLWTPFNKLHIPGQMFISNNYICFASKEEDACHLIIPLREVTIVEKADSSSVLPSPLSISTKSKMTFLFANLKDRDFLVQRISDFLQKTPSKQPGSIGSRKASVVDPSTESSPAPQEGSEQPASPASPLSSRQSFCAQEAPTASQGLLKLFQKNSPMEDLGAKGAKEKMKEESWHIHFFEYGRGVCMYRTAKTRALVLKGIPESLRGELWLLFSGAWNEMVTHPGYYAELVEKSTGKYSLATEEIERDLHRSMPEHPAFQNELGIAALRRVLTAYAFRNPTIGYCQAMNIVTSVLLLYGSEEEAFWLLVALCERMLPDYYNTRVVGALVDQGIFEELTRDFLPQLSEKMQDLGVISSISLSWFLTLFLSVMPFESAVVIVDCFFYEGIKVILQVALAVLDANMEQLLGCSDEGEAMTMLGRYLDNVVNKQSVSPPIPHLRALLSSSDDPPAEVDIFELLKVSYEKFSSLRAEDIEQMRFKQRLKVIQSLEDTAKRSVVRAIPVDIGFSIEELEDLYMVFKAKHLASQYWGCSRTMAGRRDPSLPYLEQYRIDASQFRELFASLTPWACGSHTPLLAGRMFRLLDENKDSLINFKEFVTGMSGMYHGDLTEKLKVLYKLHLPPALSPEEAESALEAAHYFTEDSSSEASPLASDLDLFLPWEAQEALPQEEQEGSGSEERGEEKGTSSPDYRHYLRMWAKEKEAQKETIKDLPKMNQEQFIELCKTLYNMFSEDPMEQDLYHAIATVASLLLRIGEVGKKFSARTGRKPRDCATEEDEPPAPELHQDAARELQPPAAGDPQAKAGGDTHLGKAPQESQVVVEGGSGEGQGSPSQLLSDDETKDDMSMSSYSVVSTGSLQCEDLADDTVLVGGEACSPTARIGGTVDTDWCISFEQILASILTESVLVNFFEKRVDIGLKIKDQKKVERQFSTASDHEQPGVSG

Compound: COC(=O)/C=C/c1ccccc1 [methyl cinnamate]
Assay: log2 ratio of iodoacetamide-alkyne labeling of the cysteine site, DMSO over compound (competition); higher = stronger covalent engagement of the cysteine by the compound, active = 1 or more
Conditions: 500 µM; treatment time 1 h; system: HEK293T cell lysate
In short: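 Three replicates, each with duplicate channels, were prepared from HEK293T lysate (2 mg/mL) treated with vehicle or electrophile at 500 µM for 1 h at ambient temperature. Iodoacetamide alkyne was then applied for 1 h, and samples were clicked to sCIP-TMT reagents, pooled, trypsin-digested overnight at 37 °C, enriched on streptavidin, acid-eluted and analysed on Orbitrap Eclipse LC-MS/MS with FAIMS, with FragPipe quantification. The log2 competition ratio per cysteine is the mean control-channel divided by the mean compound-channel reporter intensity. Cysteines quantified in only one replicate were left out.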

Target | log2 ratio of iodoacetamide-alkyne labeling
ATAD2 C631 (UniProt Q6PL18) | inactive: 0.227
EARS2 C341 (UniProt Q5JPH6) | inactive: 0.014
RBM20 C1099 (UniProt Q5T481) | inactive: 0.131
UniProt Q5VWQ0_C671 | inactive: 0.0219
ARMC6 C297 (UniProt Q6NXE6) | inactive: 0.179
SRCAP C2246 (UniProt Q6ZRS2) | inactive: 0.4
ATAD2 C635 (UniProt Q6PL18) | inactive: 0.227
GIGYF2 C289 (UniProt Q6Y7W6) | inactive: -0.162
RIF1 C1077 (UniProt Q5UIP0) | inactive: 0.294
C8orf82 C98 (UniProt Q6P1X6) | inactive: 0.167
ATAD2 C463 (UniProt Q6PL18) | inactive: 0.0785
FAM91A1 C141 (UniProt Q658Y4) | inactive: 0.17
SLC25A24 C330 (UniProt Q6NUK1) | inactive: 0.221
ZMYM4 C1264 (UniProt Q5VZL5) | inactive: 0.302
UniProt Q5TAX3_C776 | inactive: 0.354
RIF1 C1187 (UniProt Q5UIP0) | inactive: 0.151
UniProt Q5TEU4_C199 | inactive: 0.289
UniProt Q5TAX3_C1226 | inactive: 0.103
AAGAB C203 (UniProt Q6PD74) | inactive: 0.21

Look-ups from the list:
For log2 ratio of iodoacetamide-alkyne labeling, RBM20 C1099 (UniProt Q5T481) has inactive: 0.131
For log2 ratio of iodoacetamide-alkyne labeling, SLC25A24 C330 (UniProt Q6NUK1) has inactive: 0.221

Going on with the list.

Target | log2 ratio of iodoacetamide-alkyne labeling
CWF19L1 C160 (UniProt Q69YN2) | inactive: 0.13
WDR73 C106 (UniProt Q6P4I2) | inactive: -0.11
LYRM7 C97 (UniProt Q5U5X0) | inactive: 0.382
FAHD2B C301 (UniProt Q6P2I3) | inactive: -0.129
ACBD5 C170 (UniProt Q5T8D3) | inactive: 0.136
FIGNL1 C200 (UniProt Q6PIW4) | inactive: 0.276
FKBP15 C1031 (UniProt Q5T1M5) | inactive: 0.0776
UniProt Q58WW2_C593 | inactive: 0.357
UniProt Q6S8J3_C965 | inactive: 0.0284
TJAP1 C76 (UniProt Q5JTD0) | inactive: 0.351
CEP128 C915 (UniProt Q6ZU80) | inactive: 0.362
UniProt Q5UCC4_C49 | inactive: 0.124
NFXL1 C212 (UniProt Q6ZNB6) | inactive: -0.203
UniProt Q5H9L4_C158 | inactive: 0.159
INTS3 C866 (UniProt Q68E01) | inactive: -0.027
TBC1D9B C444 (UniProt Q66K14) | inactive: 0.26
CAMSAP1 C848 (UniProt Q5T5Y3) | inactive: 0.198
TTC37 C1280 (UniProt Q6PGP7) | inactive: 0.25
TBC1D9B C1079 (UniProt Q66K14) | inactive: 0.151
